# The whole screen tested about 400,000 compounds, of which about 13,000 (3.2%) were called active. Inconclusive means that the source gave no clear call. Such entries were picked first, then a sample of the others. Calls come from the whole dose curve; as a rule, active = well fitted cell-killing curve with a large enough effect; inconclusive = small, poorly fitted or top-dose-only effect, or effect the other way; inactive = flat fitted curve, though single readings scatter. Potencies beside an inconclusive call are fits to weak or partial responses and may not hold up.
# Experiment: qHTS assay for MDR1-selective chemotherapeutics: Primary screen using the drug-selected MDR subline cells KB-V1; note: nearly all actives have a fitted effect of over 60% in size
# Details: KB-V1 MDR cells viability, CellTiter-Glo, 72 h; activity change, negative = cytotoxicity: at 46.1 µM (top of the series)
# How it was run: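 In this primary screen, KB-V1 cells overexpressing P-gp are incubated with library compounds (lowest to highest concentration) for 72 h at 37 degrees C before a luminescent ATP viability read.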
# % is set by controls: 0 for no effect and ±100 for the full control effect; potency is the fitted concentration of half-maximal effect.
SMILES,"activity change, negative = cytotoxicity",Potency
CCOC(=O)c1cc2c(ccn2-c2ccc(F)cc2)n1CC(=O)N(CC)CC,inactive: -19.9%,
CCOC(=O)c1ccc(NC(=O)c2nc[nH]c2C(=O)NCC(=O)OC(C)(C)C)cc1,,"inconclusive: 13 µM [cytotoxic, partial curve, poor fit]"
COC(=O)C1=CN(c2ccc(Oc3ccccc3)cc2)C(N)=C(C#N)C1c1ccccc1 (configuration not stated),,"inconclusive: 16.4 µM [cytotoxic, partial curve, poor fit]"
COc1ccc(-c2cn(-c3ccc(C)c(Cl)c3)c(=S)[nH]2)cc1OC,inactive: -27%,
O=C(c1cc(-c2ccncc2)nc2ccccc12)N1CCN(c2ccccn2)CC1,,"inconclusive: 2.31 µM [cytotoxic, partial curve, poor fit]"
COc1ccc(NC(=O)Nc2cccc([N+](=O)[O-])c2)cc1Cl,,active: 14.6 µM
Cc1ccc(S(=O)(=O)N2CC(O)CC2C(=O)O)cc1 (configuration not stated),inactive: 23.5%,
CC(=O)c1cccc(-c2ccnc3c2CC(C(=O)Nc2cccc(C(F)(F)F)c2)O3)c1 (configuration not stated),inactive: -8.17%,
COc1cc(-c2nc3ccc4ccccc4c3c3c2CCC3)cc(OC)c1O,,"inconclusive: 18.4 µM [cytotoxic, single point]"
COc1cccc(-n2c(SCC(=O)Nc3nnc(C)s3)nc3c([nH]c4ccccc43)c2=O)c1,inactive: 0%,
CCOc1ccc(NC(=O)C2CCCN(S(=O)(=O)c3c(C)noc3/C=C/N(C)C)C2)cc1 (configuration not stated),inactive: -21.4%,
COc1ccc(/C=C/C(=O)Nc2ccc(C)c(S(=O)(=O)N3CCOCC3)c2)cc1,,active: 4.11 µM
Cc1csc(NC(=O)CSc2[nH]c(=O)ncc2C)n1,,"inconclusive: 16.4 µM [rising, partial curve, poor fit]"
CCC(C)[C@H](NC(=O)N1CCC(C)CC1)C(=O)OC (some centres not stated),,"inconclusive: 29.1 µM [cytotoxic, single point]"
CCCCN1C(=O)C(CC(=O)NCCc2ccccn2)CC(C(=O)N2CCOCC2)=C1C (configuration not stated),inactive: 0.146%,
COC(=O)C(C)Sc1nc2ccsc2c(=O)n1Cc1ccccc1 (configuration not stated),,"inconclusive: 1.84 µM [cytotoxic, full curve]"
O=C(CSc1nc2ccccc2c(=O)n1-c1ccc(F)cc1)NCc1ccco1,,active: 11.6 µM
COc1ccc(CCNC(=O)Cc2ccc(NS(=O)(=O)c3ccc(F)cc3)cc2)cc1OC,,"inconclusive: 29.1 µM [rising, single point]"
Cc1sc2ncnc(N3CCN(S(=O)(=O)c4ccc(Br)cc4)CC3)c2c1C,,"inconclusive: 20.6 µM [cytotoxic, partial curve]"
CCOC(=O)Nc1ccc2nc(N3CCCCCC3)sc2c1,,"inconclusive: 3.66 µM [cytotoxic, full curve, poor fit]"
COc1ccccc1C(=O)NCCN1CCC(n2c(=O)[nH]c3ccccc32)CC1,,"inconclusive: 20.6 µM [cytotoxic, partial curve, poor fit]"

SMILES,"activity change, negative = cytotoxicity",Potency
Cc1ccc(OCC(=O)O)c(-n2nc3ccccc3n2)c1,,"inconclusive: 25.9 µM [rising, single point]"
CCSc1ncc(Cl)c(C(=O)Nc2sc3c(c2C(=O)NCc2cccnc2)CCCC3)n1,,"inconclusive: 4.11 µM [cytotoxic, partial curve]"
COC(=O)[C@]12CCCCC=C1N(Cc1ccc3c(c1)OCO3)C(=O)[C@H](CC(=O)NCc1cccs1)C2,inactive: -26.6%,
Cc1ccc(Cn2cc(C(=O)c3ccc4c(c3)OCO4)c(=O)c3cc(C)ccc32)cc1,inactive: -6%,
CSc1ccccc1OCc1cc(C(=O)N[C@H]2CCCCNC2=O)no1,,"inconclusive: 3.26 µM [cytotoxic, partial curve, poor fit]"
CCCNC(=O)c1ccccc1NC(=O)c1ccc2c(c1)NC(=O)C(C)S2 (configuration not stated),,"inconclusive: 25.9 µM [cytotoxic, single point]"
CCN1CCCC1CNCc1cccc(OC)c1OCc1ccc(F)cc1 (configuration not stated),,active: 11.6 µM
Clc1ccc(Cn2ncc3c(NCc4cccnc4)ncnc32)cc1,,"inconclusive: 14.6 µM [cytotoxic, partial curve, poor fit]"
COc1cccc(CN(C)C(=O)c2cc(S(=O)(=O)NCc3ccccc3)ccc2C)c1OC,,active: 18.4 µM
CN(C)S(=O)(=O)N1CCN(S(=O)(=O)c2ccc(F)cc2)CC1,inactive: 19%,
CN(C)c1ccc(/C=C2/SC(=O)N(CCN=C3NS(=O)(=O)c4ccccc43)C2=O)cc1,,"inconclusive: 3.26 µM [rising, partial curve]"
O=C(c1ccc(Cl)c(S(=O)(=O)N2CCCC2)c1)N1CCN(c2ccccc2)CC1,,"inconclusive: 5.17 µM [cytotoxic, full curve]"
O=C(COC(=O)c1ccccn1)NCc1ccc(Cl)cc1Cl,,"inconclusive: 29.1 µM [rising, single point]"
COc1ccc(C(=O)NCCc2ccc(C)cc2)cc1OC1CCN(C(C)=O)CC1,,"inconclusive: 18.4 µM [cytotoxic, single point]"
Cc1ccc(S(=O)(=O)C2C(=O)N(C)C3(C)CC2c2ccccc2O3)cc1C (configuration not stated),,"inconclusive: 8.2 µM [cytotoxic, partial curve]"
Cc1cc(/C=N/NC(N)=S)c(C)n1-c1ccc(Br)cc1,,"inconclusive: 16.4 µM [cytotoxic, partial curve, poor fit]"
COC(=O)c1c(NC(=O)CN2CCC3(O)CCCCC3C2c2ccccc2OC)sc(C)c1C (configuration not stated),,"inconclusive: 11.6 µM [cytotoxic, partial curve, poor fit]"
Cc1cc(C)nc(/N=C(\N)Nc2ccc(C(C)C)cc2)n1,,"inconclusive: 9.2 µM [cytotoxic, partial curve]"
Cc1nc2nc(SCC(=O)NCCCN3CCCCCC3)nn2c(C)c1Cc1ccccc1Cl,,"inconclusive: 25.9 µM [rising, single point]"
Cc1cccc(C(=O)N[C@H](C(=O)Nc2cccc(S(=O)(=O)N3CCCC3)c2)C(C)C)c1,,"inconclusive: 16.4 µM [cytotoxic, partial curve]"
O=C(CSc1nnc(-c2ccccc2)o1)Nc1ccccc1F,,"inconclusive: 8.2 µM [cytotoxic, partial curve, poor fit]"

# Reformatted as tab-separated lines: entries from further up
SMILES	activity change, negative = cytotoxicity	Potency
O=C(c1ccc(Cl)c(S(=O)(=O)N2CCCC2)c1)N1CCN(c2ccccc2)CC1		inconclusive: 5.17 µM [cytotoxic, full curve]
O=C(COC(=O)c1ccccn1)NCc1ccc(Cl)cc1Cl		inconclusive: 29.1 µM [rising, single point]
COc1ccc(C(=O)NCCc2ccc(C)cc2)cc1OC1CCN(C(C)=O)CC1		inconclusive: 18.4 µM [cytotoxic, single point]
Cc1ccc(S(=O)(=O)C2C(=O)N(C)C3(C)CC2c2ccccc2O3)cc1C (configuration not stated)		inconclusive: 8.2 µM [cytotoxic, partial curve]

# — PubChem BioAssay AID1347076 (National Center for Advancing Translational Sciences (NCATS), 2019)
